Measured values taken from US6337345B1, “Insecticidal or miticidal combinations containing chlorfenapyr” (American Cyanamid Co., priority 1996, dated 2002).
At least one structure is not confirmed: it was looked up by name or label, or the drawing left a doubt.

Each molecule was assayed on female imagines of Kanzawa spider mite (Tetranychus kanzawai kishida) which had acquired a strong resistance to chlorfenapyr (assay: Miticidal effect on female imagines of chlorfenapyr-resistant Kanzawa spider mite, leaf disk spray test). Details: single test compound; chlorfenapyr-resistant strain.
Assay type: in vivo
Description: In this experiment, the miticidal effect against female imagines (adults) of Kanzawa spider mite (Tetranychus kanzawai kishida) which are registrant to chlorfenapyr is evaluated.
Round leaf disks (2 cm diameter) are cut out of a first leaf of kidney bean by a leaf punch and 4 sheets of the disks are placed on wet sanitary cotton in a plastic cup (8 cm diameter). On each leaf disk, 4 female imagines of Kanzawa spider mite (Tetranychus kanzawai kishida) which had acquired a strong resistance to chlorfenapyr are inoculated.
After the inoculation, chlorfenapyr and a compound(s) selected from group A are dispersed in water containing 200 ppm of an extender (Sorpol 3005X) and diluted such that a predetermined concentration of active ingredient is obtained. Each plastic cup is sprayed with 3.5 ml of a test solution with a rotary spray tower (Mizuho Scientific Co., Ltd.) and stored in a constant temperature chamber held at 25±1° C. (32 individuals are tested per concentration, 4−5 concentrations are evaluated per formulation, and 2 performances were repeated). Two days after treatment, the number of living and dead female imagines of Kanzawa spider mite (Tetranychus kanzawai kishida) which had acquired a strong resistance to chlorfenapyr is counted and the mortality (%) is calculated according the formula shown hereinbelow.
A co-toxicity coefficient is calculated by applying Sun and Johnson's formula (J. Econ. Ent., Vol 53, p. 887, […]) which is generally used to determine the degree of synergistic activity.
Co-toxicity coefficient=T^c [formula]
For T^c values greater than 100, the greater value indicates a stronger synergistic action. For a T^c value equal to 100, an additive action is indicated. For T^c values less than 100, the lesser value indicates a greater antagonistic action. A more detailed description of the calculation of the co-toxicity coefficient using the above-referenced Sun and Johnson formula follows.
The LC50 values of Test Compound A alone and Test Compound B alone and the LC50 value of the (A+B) mixture M is determined.
Actual toxicity index of mixture M=M^ti […]

SMILES	miticidal effect (in words)
CCC(C)c1cc([N+](=O)[O-])cc([N+](=O)[O-])c1OC(=O)C=C(C)C (stereo not drawn) [Binapacryl, 2,4-dinitro-6-sec-butylphenyldimethyl-acrylate]	low effects
CN(C)C(=O)SCCCCOc1ccccc1 [Fenothiocarb, S-4-phenoxybutyl-dimethylthiocarbamate]	low miticidal effect
C/C1=C\C[C@@H]2C[C@@H](C[C@]3(CC[C@H](C)[C@@H](C)O3)O2)OC(=O)[C@@H]2CC[C@@H](O)[C@H]3OC/C(=C\C=C\[C@H](C)C1)[C@]32O (mixture of isomers) [Milbemectin]	high miticidal effect
